# Data: PMC10646014
# Results are given in words; binding and its absence hold for the method and conditions named. Binding seen in cells or lysates may run through a third protein. Some results given as binding are weak or reduced against the parent protein; the word gives no strength. For part of these data: Tags and fused reporters may be left off the sequences shown.
# T1: endogenous SETD5 (human (endogenous; cell line not shown, all cell lines of the paper are human)) (UniProt Q9C0A6)
# T1 sequence: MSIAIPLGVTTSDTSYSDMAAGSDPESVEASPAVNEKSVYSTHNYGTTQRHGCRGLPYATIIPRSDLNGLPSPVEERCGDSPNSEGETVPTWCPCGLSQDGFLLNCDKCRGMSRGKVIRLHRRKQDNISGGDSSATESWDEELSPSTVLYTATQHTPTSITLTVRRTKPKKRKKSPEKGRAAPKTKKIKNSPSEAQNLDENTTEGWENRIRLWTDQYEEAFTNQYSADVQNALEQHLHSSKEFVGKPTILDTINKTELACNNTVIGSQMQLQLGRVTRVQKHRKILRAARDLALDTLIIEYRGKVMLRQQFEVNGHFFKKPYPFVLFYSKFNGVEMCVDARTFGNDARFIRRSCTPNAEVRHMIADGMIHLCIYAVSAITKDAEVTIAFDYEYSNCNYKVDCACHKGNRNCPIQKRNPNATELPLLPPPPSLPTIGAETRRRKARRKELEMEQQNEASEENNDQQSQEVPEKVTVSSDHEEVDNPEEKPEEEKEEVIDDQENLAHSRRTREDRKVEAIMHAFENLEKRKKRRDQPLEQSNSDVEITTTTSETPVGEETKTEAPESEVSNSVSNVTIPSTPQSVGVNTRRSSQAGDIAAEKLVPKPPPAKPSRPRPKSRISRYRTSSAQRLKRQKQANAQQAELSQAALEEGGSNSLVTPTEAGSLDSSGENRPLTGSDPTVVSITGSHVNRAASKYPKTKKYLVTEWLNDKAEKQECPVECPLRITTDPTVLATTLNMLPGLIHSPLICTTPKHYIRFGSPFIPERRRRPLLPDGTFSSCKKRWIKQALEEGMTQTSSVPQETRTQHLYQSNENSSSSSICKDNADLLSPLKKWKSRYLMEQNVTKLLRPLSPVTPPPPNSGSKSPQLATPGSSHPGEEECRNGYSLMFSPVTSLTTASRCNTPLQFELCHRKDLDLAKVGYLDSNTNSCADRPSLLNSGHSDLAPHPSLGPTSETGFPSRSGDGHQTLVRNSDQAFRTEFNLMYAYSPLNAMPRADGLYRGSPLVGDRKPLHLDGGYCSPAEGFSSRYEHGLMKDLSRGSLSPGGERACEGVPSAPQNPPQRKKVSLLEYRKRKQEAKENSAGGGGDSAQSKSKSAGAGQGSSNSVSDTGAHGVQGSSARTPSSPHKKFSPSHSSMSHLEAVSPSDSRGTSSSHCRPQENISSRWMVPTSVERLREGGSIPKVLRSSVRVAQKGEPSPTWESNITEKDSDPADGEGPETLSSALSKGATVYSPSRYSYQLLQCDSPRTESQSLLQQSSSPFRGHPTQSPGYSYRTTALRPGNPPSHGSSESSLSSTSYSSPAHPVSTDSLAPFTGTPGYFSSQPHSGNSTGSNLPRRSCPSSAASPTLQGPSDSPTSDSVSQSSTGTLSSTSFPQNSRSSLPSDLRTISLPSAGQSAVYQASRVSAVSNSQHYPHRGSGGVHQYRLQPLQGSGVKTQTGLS
# T2: Flag-tagged SETD5, full-length wild type, in HCT116 cells (human) (UniProt Q9C0A6)
# T2 sequence (chain, O-GlcNAcylated (reduced with OSMI-1)): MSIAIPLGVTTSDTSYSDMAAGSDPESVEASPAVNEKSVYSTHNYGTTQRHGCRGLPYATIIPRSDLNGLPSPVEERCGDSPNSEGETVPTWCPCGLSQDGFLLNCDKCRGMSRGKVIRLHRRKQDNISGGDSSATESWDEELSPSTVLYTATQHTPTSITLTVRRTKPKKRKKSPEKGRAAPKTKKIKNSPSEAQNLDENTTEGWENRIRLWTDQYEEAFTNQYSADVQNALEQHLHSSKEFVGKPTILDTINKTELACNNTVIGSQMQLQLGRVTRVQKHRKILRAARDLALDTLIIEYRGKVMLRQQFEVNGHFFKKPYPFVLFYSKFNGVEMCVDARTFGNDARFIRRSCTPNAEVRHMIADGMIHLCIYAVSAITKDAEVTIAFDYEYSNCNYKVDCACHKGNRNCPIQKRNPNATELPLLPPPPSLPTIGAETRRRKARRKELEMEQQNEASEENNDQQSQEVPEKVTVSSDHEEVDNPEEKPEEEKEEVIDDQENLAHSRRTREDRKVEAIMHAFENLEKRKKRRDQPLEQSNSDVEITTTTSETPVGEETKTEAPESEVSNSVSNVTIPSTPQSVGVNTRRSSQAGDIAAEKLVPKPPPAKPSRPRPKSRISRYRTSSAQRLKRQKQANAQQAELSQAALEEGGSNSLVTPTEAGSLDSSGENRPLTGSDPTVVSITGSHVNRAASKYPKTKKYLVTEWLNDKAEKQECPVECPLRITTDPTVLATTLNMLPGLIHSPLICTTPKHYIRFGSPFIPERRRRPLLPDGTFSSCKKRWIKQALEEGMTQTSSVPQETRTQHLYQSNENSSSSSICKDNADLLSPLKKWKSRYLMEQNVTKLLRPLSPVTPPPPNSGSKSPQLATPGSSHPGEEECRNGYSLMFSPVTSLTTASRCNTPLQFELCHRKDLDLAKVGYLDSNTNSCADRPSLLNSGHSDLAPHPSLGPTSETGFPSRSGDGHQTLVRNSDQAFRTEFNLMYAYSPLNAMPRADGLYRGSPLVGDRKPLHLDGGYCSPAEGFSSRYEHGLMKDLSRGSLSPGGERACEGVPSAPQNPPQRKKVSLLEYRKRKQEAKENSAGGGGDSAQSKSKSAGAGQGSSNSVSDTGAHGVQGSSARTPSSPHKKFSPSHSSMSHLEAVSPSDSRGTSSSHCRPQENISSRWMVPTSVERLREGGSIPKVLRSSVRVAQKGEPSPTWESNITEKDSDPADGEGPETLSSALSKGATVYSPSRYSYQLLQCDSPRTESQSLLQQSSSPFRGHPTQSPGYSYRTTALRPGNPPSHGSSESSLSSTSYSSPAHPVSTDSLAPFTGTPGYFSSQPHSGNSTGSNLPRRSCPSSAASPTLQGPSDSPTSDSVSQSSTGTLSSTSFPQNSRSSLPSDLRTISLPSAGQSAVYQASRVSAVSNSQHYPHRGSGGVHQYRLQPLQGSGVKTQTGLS
# T3: SETD5 deletion mutant ΔC, lacking the C-terminal region (892–1443) (human) (UniProt Q9C0A6)
# T3 sequence: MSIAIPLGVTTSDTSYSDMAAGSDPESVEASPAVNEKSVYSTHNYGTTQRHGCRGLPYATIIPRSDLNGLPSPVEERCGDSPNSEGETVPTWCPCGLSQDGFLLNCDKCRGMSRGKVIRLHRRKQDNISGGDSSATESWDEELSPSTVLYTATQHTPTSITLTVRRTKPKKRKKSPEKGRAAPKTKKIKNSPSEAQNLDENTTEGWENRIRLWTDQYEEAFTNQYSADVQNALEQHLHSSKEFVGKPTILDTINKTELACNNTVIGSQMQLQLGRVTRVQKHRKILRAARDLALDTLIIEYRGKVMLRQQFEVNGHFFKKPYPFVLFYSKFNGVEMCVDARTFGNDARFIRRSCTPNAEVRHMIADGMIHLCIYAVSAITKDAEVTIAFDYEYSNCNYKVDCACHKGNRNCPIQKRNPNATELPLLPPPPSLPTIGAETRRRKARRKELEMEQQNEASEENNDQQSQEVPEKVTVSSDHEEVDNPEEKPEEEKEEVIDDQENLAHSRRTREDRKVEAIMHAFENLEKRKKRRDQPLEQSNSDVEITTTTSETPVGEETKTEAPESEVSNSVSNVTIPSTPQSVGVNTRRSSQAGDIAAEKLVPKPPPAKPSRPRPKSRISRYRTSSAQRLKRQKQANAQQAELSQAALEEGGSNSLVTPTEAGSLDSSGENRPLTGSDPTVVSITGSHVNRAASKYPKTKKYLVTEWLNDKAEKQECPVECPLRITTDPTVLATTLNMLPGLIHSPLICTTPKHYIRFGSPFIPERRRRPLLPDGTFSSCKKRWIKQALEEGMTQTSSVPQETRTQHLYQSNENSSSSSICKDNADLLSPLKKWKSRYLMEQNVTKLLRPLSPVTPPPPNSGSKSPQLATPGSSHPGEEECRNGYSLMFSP
# Assays:
# [1] = biological target: T1, endogenous SETD5 (human (endogenous; cell line not shown, all cell lines of the paper are human)); experiment: co-IP; endogenous proteins; IP assay (Supplementary Fig. S4A); cell line and precipitating antibody not shown
# [2] = biological target: T2, Flag-tagged SETD5, full-length wild type, in HCT116 cells (human); experiment: co-IP; SETD5-depleted HCT116 cells with SETD5 WT or ΔC and MYC-tagged OGT, 100 nM OGAi for 24 h; IP assay, western blot (Fig. 4C)
# [3] = biological target: T3, SETD5 deletion mutant ΔC, lacking the C-terminal region (892–1443) (human); experiment: as above
binding [1],binding [2],binding [3],Binder
binds,,,"endogenous OGT (enzyme, UniProt O15294 1-1046) MASSVGNVADSTEPTKRMLSFQGLAELAHREYQAGDFEAAERHCMQLWRQEPDNTGVLLLLSSIHFQCRRLDRSAHFSTLAIKQNPLLAEAYSNLGNVYKERGQLQEAIEHYRHALRLKPDFIDGYINLAAALVAAGDMEGAVQAYVSALQYNPDLYCVRSDLGNLLKALGRLEEAKACYLKAIETQPNFAVAWSNLGCVFNAQGEIWLAIHHFEKAVTLDPNFLDAYINLGNVLKEARIFDRAVAAYLRALSLSPNHAVVHGNLACVYYEQGLIDLAIDTYRRAIELQPHFPDAYCNLANALKEKGSVAEAEDCYNTALRLCPTHADSLNNLANIKREQGNIEEAVRLYRKALEVFPEFAAAHSNLASVLQQQGKLQEALMHYKEAIRISPTFADAYSNMGNTLKEMQDVQGALQCYTRAIQINPAFADAHSNLASIHKDSGNIPEAIASYRTALKLKPDFPDAYCNLAHCLQIVCDWTDYDERMKKLVSIVADQLEKNRLPSVHPHHSMLYPLSHGFRKAIAERHGNLCLDKINVLHKPPYEHPKDLKLSDGRLRVGYVSSDFGNHPTSHLMQSIPGMHNPDKFEVFCYALSPDDGTNFRVKVMAEANHFIDLSQIPCNGKAADRIHQDGIHILVNMNGYTKGARNELFALRPAPIQAMWLGYPGTSGALFMDYIITDQETSPAEVAEQYSEKLAYMPHTFFIGDHANMFPHLKKKAVIDFKSNGHIYDNRIVLNGIDLKAFLDSLPDVKIVKMKCPDGGDNADSSNTALNMPVIPMNTIAEAVIEMINRGQIQITINGFSISNGLATTQINNKAATGEEVPRTIIVTTRSQYGLPEDAIVYCNFNQLYKIDPSTLQMWANILKRVPNSVLWLLRFPAVGEPNIQQYAQNMGLPQNRIIFSPVAPKEEHVRRGQLADVCLDTPLCNGHTTGMDVLWAGTPMVTMPGETLASRVAASQLTCLGCLELIAKNRQEYEDIAVKLGTDLEYLKKVRGKVWKQRISSPLFNTKQYTMELERLYLQMWEHYAAGNKPDHMIKPVEVTESA"
,binds,binds,"MYC-tagged OGT (O-GlcNAc transferase) in HCT116 cells (enzyme, UniProt O15294 1-1046) MASSVGNVADSTEPTKRMLSFQGLAELAHREYQAGDFEAAERHCMQLWRQEPDNTGVLLLLSSIHFQCRRLDRSAHFSTLAIKQNPLLAEAYSNLGNVYKERGQLQEAIEHYRHALRLKPDFIDGYINLAAALVAAGDMEGAVQAYVSALQYNPDLYCVRSDLGNLLKALGRLEEAKACYLKAIETQPNFAVAWSNLGCVFNAQGEIWLAIHHFEKAVTLDPNFLDAYINLGNVLKEARIFDRAVAAYLRALSLSPNHAVVHGNLACVYYEQGLIDLAIDTYRRAIELQPHFPDAYCNLANALKEKGSVAEAEDCYNTALRLCPTHADSLNNLANIKREQGNIEEAVRLYRKALEVFPEFAAAHSNLASVLQQQGKLQEALMHYKEAIRISPTFADAYSNMGNTLKEMQDVQGALQCYTRAIQINPAFADAHSNLASIHKDSGNIPEAIASYRTALKLKPDFPDAYCNLAHCLQIVCDWTDYDERMKKLVSIVADQLEKNRLPSVHPHHSMLYPLSHGFRKAIAERHGNLCLDKINVLHKPPYEHPKDLKLSDGRLRVGYVSSDFGNHPTSHLMQSIPGMHNPDKFEVFCYALSPDDGTNFRVKVMAEANHFIDLSQIPCNGKAADRIHQDGIHILVNMNGYTKGARNELFALRPAPIQAMWLGYPGTSGALFMDYIITDQETSPAEVAEQYSEKLAYMPHTFFIGDHANMFPHLKKKAVIDFKSNGHIYDNRIVLNGIDLKAFLDSLPDVKIVKMKCPDGGDNADSSNTALNMPVIPMNTIAEAVIEMINRGQIQITINGFSISNGLATTQINNKAATGEEVPRTIIVTTRSQYGLPEDAIVYCNFNQLYKIDPSTLQMWANILKRVPNSVLWLLRFPAVGEPNIQQYAQNMGLPQNRIIFSPVAPKEEHVRRGQLADVCLDTPLCNGHTTGMDVLWAGTPMVTMPGETLASRVAASQLTCLGCLELIAKNRQEYEDIAVKLGTDLEYLKKVRGKVWKQRISSPLFNTKQYTMELERLYLQMWEHYAAGNKPDHMIKPVEVTESA"
